The experiment has as its system BDF1 mice, P388 leukemia ip, median survival T/C. As to the kind of experiment: NCI In Vivo Anticancer Drug Screen. Data for tumor model P388 Leukemia (intraperitoneal) in B6D2F1 (BDF1) mice. As to conditions: T/C endpoint: median survival time, higher T/C = longer survival. In a few lines:
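Transplantable tumour in mice; compound vs vehicle dosing; survival scored; ratio of treated to control reported.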

Where [1] appears, read: dose: 12.5 mg/kg/injection, schedule: Q01DX010 (ip), vehicle: carboxymethylcellulose (CMC).
Setting [2] is: dose: 50.0 mg/kg/injection, schedule: Q01DX009 (ip), vehicle: Klucel (hydroxypropylcellulose) (HPC).
[3] abbreviates: dose: 100.0 mg/kg/injection, schedule: Q01DX009 (ip), vehicle: Klucel (hydroxypropylcellulose) (HPC).
Setting [4] is: dose: 25.0 mg/kg/injection, schedule: Q04DX003 (ip), vehicle: Klucel (hydroxypropylcellulose) (HPC).
[5] abbreviates: dose: 200.0 mg/kg/injection, schedule: Q01DX009 (ip), vehicle: water.
Setting [6] is: dose: 25.0 mg/kg/injection, schedule: Q01DX009 (ip), vehicle: Klucel (hydroxypropylcellulose) (HPC).
Setting [7] is: dose: 25.0 mg/kg/injection, schedule: Q01DX009 (ip), vehicle: saline.
[8] abbreviates: dose: 200.0 mg/kg/injection, schedule: Q01DX009 (ip), vehicle: saline with Tween-80.
[9] abbreviates: dose: 200.0 mg/kg/injection, schedule: Q01DX009 (ip), vehicle: saline.
The mark [10] stands for this setting: dose: 50.0 mg/kg/injection, schedule: Q01DX009 (ip), vehicle: saline.
The mark [11] stands for this setting: dose: 300.0 mg/kg/injection, schedule: Q04DX003 (ip), vehicle: saline.
Setting [12] is: dose: 400.0 mg/kg/injection, schedule: Q01DX009 (ip), vehicle: saline.
Where [13] appears, read: dose: 400.0 mg/kg/injection, schedule: Q04DX003 (ip), vehicle: saline.

The list is a part of this screen's results and no random one: it is rich in T/C values a quarter to a half above the control, in often repeated tests (any T/C) and in doses without a T/C. Further doses and runs are listed elsewhere. T/C: endpoint of the treated group in % of that of the vehicle group. Some doses have a count of surviving animals in place of a T/C: the source holds a T/C of zero for them, seemingly a mark for toxic or unscored doses. Some survivor counts are full or nearly so, which does not show that the dose was tolerated: the source hardly ever lists a survival T/C far under the control, and the zero likely stands for such cases as well. Counts of survivors are from the toxicity check (mostly the fifth day) where no day follows; animals may have died later. Schedules are NCI's codes, read here as Q, the interval in days (D) or hours (H), X, the number of doses. Some structures stand for samples that the source files as different forms (salt, stereo form or complex); doses refer to the form tested. Additions like (4×) stand for listed records that agree. Some entries were tested several times; the values are given in rising order. Where survival is the endpoint, the PubChem record calls one and a half times the control and up active, and a quarter to a half above the control has no call in these data; cut-offs in other NCI protocols can differ. Some T/C values carry the count of animals alive at the toxicity check (mostly the fifth day); where none is given, no animal had died by that day.

Regarding `N=C(N)SC1c2cc(Cl)ccc2-c2c(Cl)cc(Cl)cc21` (configuration not stated), the survivor count (dose: 3.1 mg/kg/injection, schedule: Q01DX010 (ip), vehicle: carboxymethylcellulose (CMC)) is reported as 6 of 6; the survivor count (dose: 6.2 mg/kg/injection, schedule: Q01DX010 (ip), vehicle: carboxymethylcellulose (CMC)) was 6 of 6; the survivor count under setting [1] is recorded as 6 of 6. For the same compound, the T/C is 135 % of control under setting [1]; 145 % of control (dose: 25.0 mg/kg/injection, schedule: Q01DX010 (ip), vehicle: carboxymethylcellulose (CMC)); 130 % of control under setting [2]; 135 % of control (dose: 50.0 mg/kg/injection, schedule: Q01DX010 (ip), vehicle: carboxymethylcellulose (CMC)); 130 % of control under setting [3].
For the compound `O=c1ccc2nc3cc(Cl)ccc3sc-2c1`, the survivor count under setting [3] is reported as 6 of 6. Moreover, the T/C (dose: 400.0 mg/kg/injection, schedule: Q01DX009 (ip), vehicle: Klucel (hydroxypropylcellulose) (HPC)) was 125 % of control.
As to `COc1ccc(SC2=C(N(C)C(C)=O)C(=O)c3ccccc3C2=O)cc1`, the survivor count is on record as 3 of 6 (dose: 15.0 mg/kg/injection, schedule: Q01DX009 (ip), vehicle: Klucel (hydroxypropylcellulose) (HPC)); 4 of 6 under setting [4]; 6 of 6 (dose: 30.0 mg/kg/injection, schedule: Q01DX009 (ip), vehicle: Klucel (hydroxypropylcellulose) (HPC)).
On to `c1ccc(-c2c(-c3ccccc3)c(-c3ccccc3)c(-c3ccccc3)c(-c3ccccc3)c2-c2ccccc2)cc1`, for which the survivor count (dose: 25.0 mg/kg/injection, schedule: Q01DX009 (ip), vehicle: water) was 6 of 6; the survivor count under setting [5] is listed as 6 of 6; the survivor count (dose: 400.0 mg/kg/injection, schedule: Q01DX009 (ip), vehicle: water) is recorded as 6 of 6.
Take `CCN(CC)Cc1c(C)[nH]c2c(OC)cccc2c1=O`: the survivor count under setting [5] is recorded as 0 of 6.
Turning to `C[P+](C)(c1ccccc1)c1ccccc1`, the survivor count (dose: 25.0 mg/kg/injection, schedule: Q04DX003 (ip), vehicle: saline with Tween-80) is on record as 5 of 6.
As to `O=C(/C=C/c1cccnc1)/C=C/c1cccnc1`, the T/C runs as follows: (dose: 6.25 mg/kg/injection, schedule: Q01DX009 (ip), vehicle: Klucel (hydroxypropylcellulose) (HPC)) 130 % of control; (dose: 12.5 mg/kg/injection, schedule: Q01DX009 (ip), vehicle: Klucel (hydroxypropylcellulose) (HPC)) 125 % of control; under setting [6], 130 % of control [4 of 6 alive].
Take `O=C1C=C(Cl)C(=O)C(Cl)=C1`: the survivor count (dose: 12.0 mg/kg/injection, schedule: Q01DX009 (ip), vehicle: Klucel (hydroxypropylcellulose) (HPC)) was 2 of 6 and the survivor count under setting [4] was 1 of 6.
For the compound `COc1cc(N)ccc1C(=O)O`, the T/C (dose: 1.56 mg/kg/injection, schedule: Q01DX009 (ip), vehicle: saline) is 131 % of control. In addition, the survivor count under setting [7] is on record as 3 of 6.
On to `NC(=S)n1cccn1`, for which the survivor count (dose: 100.0 mg/kg/injection, schedule: Q01DX010 (ip), vehicle: water) is listed as 6 of 6.
On to `CCCCC(NC(C)=O)C(=O)O` (configuration not stated), for which the T/C under setting [8] was 127 % of control.
Take `C=CCCCCCCCCC(=O)NCCN1CCOCC1`: under setting [8], the survivor count was 5 of 6.
Consider `C[C@]12CC[C@H](O)C=C1CC[C@@H]1[C@@H]2CC[C@]2(C)C(c3ccc(=O)oc3)CC[C@]12O` (some centres not stated), for which the survivor count is 3 of 6 under setting [6] and 0 of 6 under setting [2].
`C[S+](C)Cc1ccc(C(=O)Oc2ccc([N+](=O)[O-])cc2)cc1`: the survivor count under setting [9] was 5 of 6.
As to `COc1ccc([C@@H]2c3cc4c(cc3C[C@H]3COC(=O)[C@@H]32)OCO4)cc1OC`, the T/C (dose: 50.0 mg/kg/injection, schedule: Q01DX009 (ip), vehicle: saline with Tween-80) is 127 % of control.
For the compound `c1nc(SSc2ncnc3nc[nH]c23)c2[nH]cnc2n1`, the survivor count is listed as 6 of 6 (dose: 3.7 mg/kg/injection, schedule: Q04DX003 (ip), vehicle: saline with Tween-80) and 6 of 6 (dose: 50.0 mg/kg/injection, schedule: Q04DX003 (ip), vehicle: saline with Tween-80). The T/C is, setting by setting: (dose: 7.5 mg/kg/injection, schedule: Q04DX003 (ip), vehicle: saline with Tween-80) 142 % of control; (dose: 25.0 mg/kg/injection, schedule: Q04DX003 (ip), vehicle: saline) 129 % of control.
Take `O=C1C=CC(=O)O1` (tested in a mixture with another compound): the survivor count runs as follows: (dose: 2.0 mg/kg/injection, schedule: Q01DX009 (ip), vehicle: Klucel (hydroxypropylcellulose) (HPC)) 5 of 6; (dose: 3.0 mg/kg/injection, schedule: Q01DX009 (ip), vehicle: Klucel (hydroxypropylcellulose) (HPC)) 0 of 6; (dose: 3.12 mg/kg/injection, schedule: Q01DX009 (ip), vehicle: other) 4 of 6; (dose: 6.25 mg/kg/injection, schedule: Q01DX009 (ip), vehicle: other) 1 of 6; (dose: 11.0 mg/kg/injection, schedule: Q04DX003 (ip), vehicle: Klucel (hydroxypropylcellulose) (HPC)) 0 of 6; (dose: 16.0 mg/kg/injection, schedule: Q04DX003 (ip), vehicle: Klucel (hydroxypropylcellulose) (HPC)) 1 of 6. The survivor count by setting is: (dose: 19.0 mg/kg/injection, schedule: Q04DX003 (ip), vehicle: Klucel (hydroxypropylcellulose) (HPC)) 2 of 6; (dose: 22.0 mg/kg/injection, schedule: Q01DX009 (ip), vehicle: saline) 6 of 6; under setting [7], 6 of 6; (dose: 29.0 mg/kg/injection, schedule: Q04DX003 (ip), vehicle: Klucel (hydroxypropylcellulose) (HPC)) 1 of 6; (dose: 33.0 mg/kg/injection, schedule: Q01DX009 (ip), vehicle: saline) 5 of 6; (dose: 45.0 mg/kg/injection, schedule: Q04DX003 (ip), vehicle: Klucel (hydroxypropylcellulose) (HPC)) 2 of 6. In addition, the survivor count runs as follows: under setting [10], 6 of 6 (2×); (dose: 75.0 mg/kg/injection, schedule: Q01DX009 (ip), vehicle: saline) 6 of 6; (dose: 100.0 mg/kg/injection, schedule: Q01DX009 (ip), vehicle: saline) 6 of 6; under setting [11], 5 of 6 and 6 of 6; under setting [12], 1 of 6 and 2 of 6; under setting [13], 2 of 6, 3 of 6, 4 of 6 (2×). For the same compound, the survivor count (dose: 500.0 mg/kg/injection, schedule: Q04DX003 (ip), vehicle: saline) is reported as 2 of 6, 3 of 6, 5 of 6. Besides, the T/C by setting is: under setting [7], 126 % of control; under setting [10], 132, 140, 141 % of control; (dose: 88.0 mg/kg/injection, schedule: Q04DX003 (ip), vehicle: saline) 141 % of control; (dose: 100.0 mg/kg/injection, schedule: Q04DX003 (ip), vehicle: saline) 135 and 138 % of control; (dose: 132.0 mg/kg/injection, schedule: Q04DX003 (ip), vehicle: saline) 133 % of control; under setting [9], 129 % of control. Moreover, the T/C runs as follows: (dose: 200.0 mg/kg/injection, schedule: Q04DX003 (ip), vehicle: saline) 125, 129, 146 % of control; under setting [11], 131 % of control; under setting [12], 147 % of control; under setting [13], 125 [5 of 6 alive], 129 [5 of 6 alive], 145, 146 % of control [5 of 6 alive].
Turning to `ClC(c1ccccc1)C1(Br)C=c2ccccc2=C1` (configuration not stated), for the setting “dose: 200.0 mg/kg/injection, schedule: Q01DX009 (ip), vehicle: Klucel (hydroxypropylcellulose) (HPC)”, the survivor count is given as 1 of 6.
Consider `ClCC1CCN(CCc2ccccc2)CC1`, for which, under setting [9], the survivor count is 1 of 6.

These data come from PubChem BioAssay AID328 (DTP/NCI, 2004).
